{"source": "patent US11197828B2", "about": "“Solid oral dosage form of lipophilic compounds” (SOLURAL PHARMA APS, priority 2014, dated 2021)", "origin": "cited, not measured here", "conditions": "cited from earlier work", "data": [{"smiles": "CC(=O)O[C@H]1C(=O)[C@@]2(C)[C@H]([C@H](OC(=O)c3ccccc3)[C@]3(O)C[C@H](OC(=O)[C@H](O)[C@@H](NC(=O)c4ccccc4)c4ccccc4)C(C)=C1C3(C)C)[C@]1(OC(C)=O)CO[C@@H]1C[C@@H]2O", "note": "[Paclitaxel]", "values": [{"measurement": "solubility", "result": "< 50", "unit": "µg/mL"}]}]}
